# The whole screen tested about 360,000 compounds, of which about 780 (0.22%) were called active. This list was built around the results that the source calls inconclusive (neither active nor inactive); the mix of calls is not that of the screen. Rule as the data show it: active = inhibition above about 35% (passing the limit was not always enough); inconclusive = no clear call, values can overlap the other calls.
# Test system: Botulinum neurotoxin type F light chain protease (Clostridium botulinum)
# Assay: BoNT/F light chain protease inhibitors, primary screen, biochemical, flow cytometry, MLPCN library (AID 588497); also: plate controls were buffer without enzyme for full effect and enzyme alone for no effect
# Conditions: Multiplex microsphere protease cleavage assay, at 10 µM, hits give high values
row,SMILES,inhibition
1,COc1ccc(Oc2nc(-c3cccnc3)nc3ccccc23)cc1,inconclusive: 7.7%
2,COc1ccc(NC(=O)C(C)N2C(=O)c3ccccc3S2(=O)=O)c(OC)c1 (configuration not stated),inconclusive: -10.4%
3,O=C(Oc1c(-c2ccccc2)c(=O)n2c3c(cccc13)CC2)c1ccc(F)cc1,inconclusive: 24.8%
4,CCCOc1ccc(C(=O)Nc2ccc3c(c2)OCCO3)cc1,inconclusive: 7.5%
5,O=C(CCN1C(=O)c2ccccc2C1=O)Nc1ccc(S(=O)(=O)N2CCOCC2)cc1,inactive: -6%
6,CC(NCCCOc1cccc2ccccc12)c1ccccc1 (configuration not stated),inconclusive: -9.8%
7,O=C(Nc1ccc(S(=O)(=O)N2CCOCC2)cc1)c1cccc(Br)c1,inconclusive: -21%
8,O=C1NC(C(F)(F)F)(C(F)(F)F)N=C2SC=CN12,inconclusive: -26.8%
9,CCOC(=O)c1cnc2c(ccc3ccccc32)c1Cl,inconclusive: -27.6%
10,COc1cc([N+](=O)[O-])c2nc(C(=O)O)ccc2c1,inactive: -33.9%
11,CC(=O)Nc1ccc(NC(=S)NC(=O)c2ccc(-c3ccccc3)cc2)cc1,inconclusive: -60.5%
12,COc1ccc(N2C(=O)C(CC(=O)O)S/C2=N\N=C\c2cccs2)cc1 (configuration not stated),active: 43.3%
13,O=C(c1sc2ccccc2c1Cl)N(Cc1ccco1)C1CCS(=O)(=O)C1 (configuration not stated),inactive: -4.3%
14,CCS(=O)c1scc(-c2ccc(Cl)cc2)c1C#N (configuration not stated),inconclusive: 27.4%
15,Cc1ccc2c(c1)CC1(CN2C)C(=O)NC(=O)N(c2cc(C)ccc2C)C1=O (configuration not stated),inactive: 2.7%
16,O=c1c2cc(N3CCOCC3)ccc2[nH]c(=S)n1CCCN1CCCCCC1,inactive: -5%
17,CN(C)C(=O)C1CC(=O)OC12CCCCC2 (configuration not stated),inconclusive: 190%
18,OC1(c2ccc(Br)cc2)CCN(Cc2cccc(Br)c2)CC1,inconclusive: -23.2%
19,NNC(=O)c1csc(-c2ccccc2)n1,inconclusive: 23%
20,CN1CCC(Oc2ccccc2Sc2ccccc2)CC1,inactive: 30.5%
21,COc1cc(OC)c(OC)cc1/C=N/NC(=O)CCc1c(C)n[nH]c1C,inconclusive: 19.7%
22,COc1cc(C(=S)N2CCC(C(N)=O)CC2)ccc1O,inconclusive: 4%
23,Cc1ccc(Nc2nc(N)nc(CSc3nnc(-c4ccncc4)o3)n2)cc1,inconclusive: 4.3%
24,CN(C)C=Nc1ccc([N+](=O)[O-])c2ccccc12,inactive: 7.5%

# 10 of the compounds above, with tabs:
row	SMILES	inhibition
9	CCOC(=O)c1cnc2c(ccc3ccccc32)c1Cl	inconclusive: -27.6%
10	COc1cc([N+](=O)[O-])c2nc(C(=O)O)ccc2c1	inactive: -33.9%
11	CC(=O)Nc1ccc(NC(=S)NC(=O)c2ccc(-c3ccccc3)cc2)cc1	inconclusive: -60.5%
12	COc1ccc(N2C(=O)C(CC(=O)O)S/C2=N\N=C\c2cccs2)cc1 (configuration not stated)	active: 43.3%
13	O=C(c1sc2ccccc2c1Cl)N(Cc1ccco1)C1CCS(=O)(=O)C1 (configuration not stated)	inactive: -4.3%
14	CCS(=O)c1scc(-c2ccc(Cl)cc2)c1C#N (configuration not stated)	inconclusive: 27.4%
15	Cc1ccc2c(c1)CC1(CN2C)C(=O)NC(=O)N(c2cc(C)ccc2C)C1=O (configuration not stated)	inactive: 2.7%
16	O=c1c2cc(N3CCOCC3)ccc2[nH]c(=S)n1CCCN1CCCCCC1	inactive: -5%
17	CN(C)C(=O)C1CC(=O)OC12CCCCC2 (configuration not stated)	inconclusive: 190%
18	OC1(c2ccc(Br)cc2)CCN(Cc2cccc(Br)c2)CC1	inconclusive: -23.2%

# The list goes on.

row,SMILES,inhibition
1,OC[C@H]1OC(Nc2ccc(N=Nc3ccccc3)cc2)[C@@H](O)[C@@H](O)[C@@H]1O (some centres not stated),inconclusive: -22.9%
2,CCCCCn1c(CN2CCN(C)CC2)nc2c1c(=O)n(C)c(=O)n2C,inactive: -7.2%
3,COCCNC(=O)c1cccc2c(-c3cnn(C)c3)coc12,inactive: -3.2%
4,COc1cc(/C=N/Nc2ccc(S(N)(=O)=O)cc2)cc(OC)c1OC,inactive: 0.7%
5,CC1=Nc2ccc(C)cc2/C1=C/c1c(N)n2oc(C)cc2nc1=O,inconclusive: 2.2%
6,CC(=O)N1CCN(Cc2cc(=O)oc3cc(C)cc(C)c23)CC1,inactive: 3.4%
7,COC(=O)C1=C(C)N(c2ccc(OC)cc2)C(C)=C(C(=O)OC)C1c1ccccc1,inconclusive: 71.1%
8,CC1(c2ccc([N+](=O)[O-])cc2)NC(=O)N(CC(=O)c2ccc3c(c2)OCO3)C1=O (configuration not stated),inconclusive: -1.9%
9,Cc1[nH]n(-c2ccccc2)c(=O)c1N=Nc1ccccc1C(=O)O,inconclusive: -41.6%
10,FC(F)(F)c1cccc(-c2cc(C3CCNCC3)[nH]n2)c1,inconclusive: 5.4%
11,COCCn1c(C)cc2c(c1=O)C(c1ccco1)C(C#N)=C(N)O2 (configuration not stated),inactive: 1.8%
12,CC(=O)Nc1ccc(S(=O)(=O)Nc2cccc(-c3nc4ccccc4o3)c2)cc1,inactive: -6.5%
13,CSCCC(C(=O)Nc1c(C)cccc1C)N1CCN(c2ccc(F)cc2)CC1 (configuration not stated),inactive: -4%
14,CN1CCC(OC(=O)c2cc3cc(Cl)cc(Cl)c3oc2=O)CC1,inconclusive: 6.2%
15,N/C(=N\OC(=O)Nc1ccccc1)c1ncc([N+](=O)[O-])s1,inconclusive: 23%
16,Cc1ccc(OCC(=O)O/N=C(\N)c2cccc([N+](=O)[O-])c2)cc1C,inconclusive: 34.2%
17,CSc1ncccc1C(=O)OCCCC(=O)c1ccc(F)cc1,inconclusive: -21.7%
18,O=C(CN(CCN1CCOCC1)C(=O)Cn1nnc(-c2ccc(F)cc2)n1)NC1CCCCC1,inactive: 3.9%
19,CC(Sc1nnnn1-c1ccc(O)cc1)C(=O)NC1CCCCC1C (configuration not stated),inconclusive: -52.5%
20,Cc1cc(Cl)c(C(=O)Nc2cccc(C(F)(F)F)c2)c(C)n1,inconclusive: -43.6%
21,O=Cc1c[nH]c2ccc(S(=O)(=O)N3CCCCC3)cc12,inactive: 1.2%
22,COc1ccc(NC(=O)Cn2nc(C(=O)O)c3ccccc3c2=O)cc1Cl,inactive: -0.7%
23,Cc1ccc(S(=O)(=O)N2CCN(C(=O)COC(=O)c3c(C)cc(C)cc3C)CC2)c(C)c1,inconclusive: -5%
